PubChem BioAssay AID1259308, NCATS – 2017
In all, the deposit lists about 59,000 reagents; this is a random part of them. Over the whole deposit, about 1,510 (2.6%) are marked active. 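Calls use total luciferase alone and ignore viability, so some active siRNAs may act by altering cell number.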 The numbers tell different reagents against one gene apart. Further read-outs or replicates are left out here.

- Purpose: 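Genes whose loss raises luciferase production in HEK293 cells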 (primary screen)
- System: human HEK293 embryonic kidney cells stably expressing firefly luciferase (HEK-CMV-Luc2-Hygro)
- Reagents: single siRNA against human genes, 0.8 pmol siRNA per well
- Duration: 72 h
- Detection: 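Reporter luminescence and viable-cell signal on separate replicate plates, given as percent of non-targeting control and median/MAD z-scores, plus per-cell luciferase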
- Scale: total luciferase, z-score: higher = more reporter protein produced
- Hit rule: 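Active when the median/MAD z-score for overall luciferase is greater than 3; a gene was taken forward for validation with new siRNAs if at least two of its three siRNAs passed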
- Meaning of the calls: active = raised luciferase; inactive = no rise

For VPS18 #1, what was measured?
total luciferase, z-score: -0.205; call: inactive

With VPS18 #2, what was measured?
total luciferase, z-score: -2.31; call: inactive

With VPS18 #3, what does the deposit list?
total luciferase, z-score: 1.67; call: inactive

For LOC649935 (retired record) #1, what does the deposit list?
total luciferase, z-score: -0.438; call: inactive

What did the screen give for LOC649935 (retired record) #2?
total luciferase, z-score: -1.8; call: inactive

Which result is listed for LOC649935 (retired record) #3?
total luciferase, z-score: 0.176; call: inactive

Entries above whose target name begins with L or l (3):
LOC649935 (retired record) #1 | total luciferase, z-score = -0.438; call = inactive
LOC649935 (retired record) #2 | total luciferase, z-score = -1.8; call = inactive
LOC649935 (retired record) #3 | total luciferase, z-score = 0.176; call = inactive

Further results follow.
For PLAA #1, what was measured?
total luciferase, z-score: 1.01; call: inactive

For PLAA #2, what does the deposit list?
total luciferase, z-score: 1.25; call: inactive

What did the screen give for PLAA #3?
total luciferase, z-score: -0.959; call: inactive

With SNRNP40 #1, how do the results read?
total luciferase, z-score: -1.71; call: inactive

How did the screen score SNRNP40 #2?
total luciferase, z-score: -0.802; call: inactive

For SNRNP40 #3, what does the deposit list?
total luciferase, z-score: -1.66; call: inactive
